Measurements: article PMC5945891, “Proteomics of Stored Red Blood Cell Membrane and Storage-Induced Microvesicles Reveals the Association of Flotillin-2 With Band 3 Complexes” (Frontiers in Physiology, 2018)

The chains behind the UniProt entries cited, without tags or fusion partners. Where a name states a change or a piece, a line headed by the entry shows the natural chain unless it says otherwise.
UniProt P02730: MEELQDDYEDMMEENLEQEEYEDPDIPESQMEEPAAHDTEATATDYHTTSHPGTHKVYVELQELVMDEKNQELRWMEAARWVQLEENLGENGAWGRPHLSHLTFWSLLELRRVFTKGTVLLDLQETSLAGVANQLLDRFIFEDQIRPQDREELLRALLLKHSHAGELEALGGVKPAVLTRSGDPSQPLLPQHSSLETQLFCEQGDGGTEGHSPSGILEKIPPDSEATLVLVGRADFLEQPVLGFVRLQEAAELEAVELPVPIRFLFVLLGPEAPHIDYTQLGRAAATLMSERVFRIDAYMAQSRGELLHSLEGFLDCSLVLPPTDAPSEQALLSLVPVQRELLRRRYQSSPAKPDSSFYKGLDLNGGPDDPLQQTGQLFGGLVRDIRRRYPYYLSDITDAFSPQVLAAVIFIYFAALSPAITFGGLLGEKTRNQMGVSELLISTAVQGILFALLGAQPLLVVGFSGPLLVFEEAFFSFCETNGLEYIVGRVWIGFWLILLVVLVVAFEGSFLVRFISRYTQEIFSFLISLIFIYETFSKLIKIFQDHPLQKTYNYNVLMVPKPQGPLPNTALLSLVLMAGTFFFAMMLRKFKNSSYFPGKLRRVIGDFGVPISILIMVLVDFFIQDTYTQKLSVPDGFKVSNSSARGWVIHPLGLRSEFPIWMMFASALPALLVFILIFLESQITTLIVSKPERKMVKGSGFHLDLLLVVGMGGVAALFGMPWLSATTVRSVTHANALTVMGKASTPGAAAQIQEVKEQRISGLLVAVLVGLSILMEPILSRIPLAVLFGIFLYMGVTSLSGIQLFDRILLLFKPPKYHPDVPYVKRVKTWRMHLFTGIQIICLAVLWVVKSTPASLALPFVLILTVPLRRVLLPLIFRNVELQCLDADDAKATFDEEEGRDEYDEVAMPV
UniProt P53396: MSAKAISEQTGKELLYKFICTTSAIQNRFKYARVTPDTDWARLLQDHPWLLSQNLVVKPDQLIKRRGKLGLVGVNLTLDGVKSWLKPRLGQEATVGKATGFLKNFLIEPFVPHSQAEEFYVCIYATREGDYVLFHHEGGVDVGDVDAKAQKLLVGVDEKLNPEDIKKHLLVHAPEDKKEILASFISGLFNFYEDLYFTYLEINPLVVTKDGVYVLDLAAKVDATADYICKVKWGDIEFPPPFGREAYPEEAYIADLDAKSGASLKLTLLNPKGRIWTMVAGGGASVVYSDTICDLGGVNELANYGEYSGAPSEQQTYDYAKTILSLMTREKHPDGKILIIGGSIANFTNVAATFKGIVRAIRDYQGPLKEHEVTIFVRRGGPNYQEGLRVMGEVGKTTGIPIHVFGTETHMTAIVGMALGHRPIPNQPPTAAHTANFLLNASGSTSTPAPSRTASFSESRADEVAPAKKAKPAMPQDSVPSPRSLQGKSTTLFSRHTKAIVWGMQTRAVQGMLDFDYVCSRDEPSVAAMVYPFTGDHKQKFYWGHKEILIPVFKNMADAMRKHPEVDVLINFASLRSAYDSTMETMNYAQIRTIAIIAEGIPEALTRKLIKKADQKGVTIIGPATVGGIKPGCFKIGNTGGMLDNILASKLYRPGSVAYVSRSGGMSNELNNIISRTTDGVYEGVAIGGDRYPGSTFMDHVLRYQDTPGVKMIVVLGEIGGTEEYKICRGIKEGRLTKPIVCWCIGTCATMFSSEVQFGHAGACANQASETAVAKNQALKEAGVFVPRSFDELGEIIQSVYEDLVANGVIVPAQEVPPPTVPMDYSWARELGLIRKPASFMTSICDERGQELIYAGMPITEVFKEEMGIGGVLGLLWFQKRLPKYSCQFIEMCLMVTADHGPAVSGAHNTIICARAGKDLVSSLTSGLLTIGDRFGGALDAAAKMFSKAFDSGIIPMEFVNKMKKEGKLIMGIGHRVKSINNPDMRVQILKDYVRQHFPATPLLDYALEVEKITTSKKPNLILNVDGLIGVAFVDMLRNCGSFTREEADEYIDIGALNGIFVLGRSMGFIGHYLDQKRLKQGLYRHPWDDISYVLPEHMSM
UniProt P35611: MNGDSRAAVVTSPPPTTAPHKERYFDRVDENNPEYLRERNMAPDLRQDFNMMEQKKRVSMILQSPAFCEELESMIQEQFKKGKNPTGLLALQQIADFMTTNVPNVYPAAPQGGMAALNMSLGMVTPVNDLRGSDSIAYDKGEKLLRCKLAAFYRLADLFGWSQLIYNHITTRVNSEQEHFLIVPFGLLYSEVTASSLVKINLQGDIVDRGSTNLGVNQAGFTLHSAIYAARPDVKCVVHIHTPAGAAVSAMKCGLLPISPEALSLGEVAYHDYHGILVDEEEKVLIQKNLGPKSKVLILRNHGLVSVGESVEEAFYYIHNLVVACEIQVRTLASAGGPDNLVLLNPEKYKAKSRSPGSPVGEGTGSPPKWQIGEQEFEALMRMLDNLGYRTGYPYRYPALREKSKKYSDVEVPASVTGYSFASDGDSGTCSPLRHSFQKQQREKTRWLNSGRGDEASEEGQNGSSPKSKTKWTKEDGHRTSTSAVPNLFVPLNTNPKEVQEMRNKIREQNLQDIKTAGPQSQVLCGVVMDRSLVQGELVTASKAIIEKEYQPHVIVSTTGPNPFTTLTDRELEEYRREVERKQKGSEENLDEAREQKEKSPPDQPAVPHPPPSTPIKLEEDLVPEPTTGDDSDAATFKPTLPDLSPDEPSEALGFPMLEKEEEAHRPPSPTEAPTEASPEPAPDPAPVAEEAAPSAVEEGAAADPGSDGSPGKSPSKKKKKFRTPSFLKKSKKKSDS
UniProt P02042: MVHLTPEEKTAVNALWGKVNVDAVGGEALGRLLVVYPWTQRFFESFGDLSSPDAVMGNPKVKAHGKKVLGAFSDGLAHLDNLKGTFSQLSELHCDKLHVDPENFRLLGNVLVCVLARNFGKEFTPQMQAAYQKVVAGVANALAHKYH
UniProt P61224: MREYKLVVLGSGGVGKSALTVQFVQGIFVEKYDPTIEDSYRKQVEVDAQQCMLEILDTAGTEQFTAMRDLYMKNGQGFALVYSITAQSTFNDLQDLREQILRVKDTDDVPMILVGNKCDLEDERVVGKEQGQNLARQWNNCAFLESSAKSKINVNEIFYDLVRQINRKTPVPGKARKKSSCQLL
UniProt P61088: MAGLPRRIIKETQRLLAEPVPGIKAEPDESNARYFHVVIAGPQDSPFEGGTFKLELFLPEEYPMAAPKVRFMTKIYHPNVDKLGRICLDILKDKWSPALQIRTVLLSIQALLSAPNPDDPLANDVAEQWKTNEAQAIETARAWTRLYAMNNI

B1: Ras-related protein Rap-2b (protein, UniProt P61225 1-183)
chain: MREYKVVVLGSGGVGKSALTVQFVTGSFIEKYDPTIEDFYRKEIEVDSSPSVLEILDTAGTEQFASMRDLYIKNGQGFILVYSLVNQQSFQDIKPMRDQIIRVKRYERVPMILVGNKVDLEGEREVSYGEGKALAEEWSCPFMETSAKNKASVDELFAEIVRQMNYAAQPNGDEGCCSACVIL
B2: Phosphatidylinositol-5-phosphate 4-kinase (enzyme, UniProt P48426 1-406)
chain: MATPGNLGSSVLASKTKTKKKHFVAQKVKLFRASDPLLSVLMWGVNHSINELSHVQIPVMLMPDDFKAYSKIKVDNHLFNKENMPSHFKFKEYCPMVFRNLRERFGIDDQDFQNSLTRSAPLPNDSQARSGARFHTSYDKRYIIKTITSEDVAEMHNILKKYHQYIVECHGITLLPQFLGMYRLNVDGVEIYVIVTRNVFSHRLSVYRKYDLKGSTVAREASDKEKAKELPTLKDNDFINEGQKIYIDDNNKKVFLEKLKKDVEFLAQLKLMDYSLLVGIHDVERAEQEEVECEENDGEEEGESDGTHPVGTPPDSPGNTLNSSPPLAPGEFDPNIDVYGIKCHENSPRKEVYFMAIIDILTHYDAKKKAAHAAKTVKHGAGAEISTVNPEQYSKRFLDFIGHILT
B3: Adenylosuccinate lyase (enzyme, UniProt P30566 1-484)
chain: MAAGGDHGSPDSYRSPLASRYASPEMCFVFSDRYKFRTWRQLWLWLAEAEQTLGLPITDEQIQEMKSNLENIDFKMAAEEEKRLRHDVMAHVHTFGHCCPKAAGIIHLGATSCYVGDNTDLIILRNALDLLLPKLARVISRLADFAKERASLPTLGFTHFQPAQLTTVGKRCCLWIQDLCMDLQNLKRVRDDLRFRGVKGTTGTQASFLQLFEGDDHKVEQLDKMVTEKAGFKRAFIITGQTYTRKVDIEVLSVLASLGASVHKICTDIRLLANLKEMEEPFEKQQIGSSAMPYKRNPMRSERCCSLARHLMTLVMDPLQTASVQWFERTLDDSANRRICLAEAFLTADTILNTLQNISEGLVVYPKVIERRIRQELPFMATENIIMAMVKAGGSRQDCHEKIRVLSQQAASVVKQEGGDNDLIERIQVDAYFSPIHSQLDHLLDPSSFTGRASQQVQRFLEEEVYPLLKPYESVMKVKAELCL
B4: Tropomodulin-1 (protein, UniProt P28289 1-359)
chain: MSYRRELEKYRDLDEDEILGALTEEELRTLENELDELDPDNALLPAGLRQKDQTTKAPTGPFKREELLDHLEKQAKEFKDREDLVPYTGEKRGKVWVPKQKPLDPVLESVTLEPELEEALANASDAELCDIAAILGMHTLMSNQQYYQALSSSSIMNKEGLNSVIKPTQYKPVPDEEPNSTDVEETLERIKNNDPKLEEVNLNNIRNIPIPTLKAYAEALKENSYVKKFSIVGTRSNDPVAYALAEMLKENKVLKTLNVESNFISGAGILRLVEALPYNTSLVEMKIDNQSQPLGNKVEMEIVSMLEKNATLLKFGYHFTQQGPRLRASNAMMNNNDLVRKRRLADLTGPIIPKCRSGV
B5: Flotillin-2 (natural protein, human (endogenous in RBCs), UniProt Q14254 1-428, looked up)
chain: MGNCHTVGPNEALVVSGGCCGSDYKQYVFGGWAWAWWCISDTQRISLEIMTLQPRCEDVETAEGVALTVTGVAQVKIMTEKELLAVACEQFLGKNVQDIKNVVLQTLEGHLRSILGTLTVEQIYQDRDQFAKLVREVAAPDVGRMGIEILSFTIKDVYDKVDYLSSLGKTQTAVVQRDADIGVAEAERDAGIREAECKKEMLDVKFMADTKIADSKRAFELQKSAFSEEVNIKTAEAQLAYELQGAREQQKIRQEEIEIEVVQRKKQIAVEAQEILRTDKELIATVRRPAEAEAHRIQQIAEGEKVKQVLLAQAEAEKIRKIGEAEAAVIEAMGKAEAERMKLKAEAYQKYGDAAKMALVLEALPQIAAKIAAPLTKVDEIVVLSGDNSKVTSEVNRLLAELPASVHALTGVDLSKIPLIKKATGVQV
notes: flotillin-2, human, SwissProt Q14254; source: endogenous, membranes of stored human RBCs and storage-induced microvesicles, 1% deoxycholate extract

Target: band 3 (human (endogenous in RBCs)) (UniProt P02730)
Assay: affinity purification with mass spectrometry; band 3 complexes captured from 1% deoxycholate extracts of RBC membranes (short-stored, about day 6, and long-stored, about day 42, ECs; bags A-C) on magnetic beads coated with anti-band 3 BRIC 6 and BRIC 170, 1 h at 4°C; eluates separated by SDS-PAGE, digested in gel, LC-MS/MS; presence or absence only

binding | Molecule
binds | ATP-citrate synthase (from UniProt P53396 1-1101) (enzyme)
binds | Alpha-adducin (from UniProt P35611 1-737)
binds | Hemoglobin subunit delta (from UniProt P02042 1-147)
binds | Ras-related protein Rap-1b (from UniProt P61224 1-184)
binds | Ubiquitin-conjugating enzyme E2N (from UniProt P61088 1-152)
binds | B1
binds | B2
binds | B3
binds | B4
binds | B5

These are yes or no findings as the source states them, for the method shown. Binding seen in cells or lysates may run through a third protein. These calls come from enrichment with a bait or labelling near it, and not all partners need be listed.
